Reference: paper doi:10.1101/611533
No constants are given. Whether binding was seen depends on the method and setting. For some of these results: In cells and extracts the contact can be indirect. Some entries that bind do so weakly or less than the wild type. Tags and fused reporters may be left off the sequences shown.

Experiments:
[1] = biological target: T1, GI fused to a Venus (YFP) fragment for BiFC (Arabidopsis thaliana) (UniProt Q9SQI2); experiment: split reporter
T1 sequence: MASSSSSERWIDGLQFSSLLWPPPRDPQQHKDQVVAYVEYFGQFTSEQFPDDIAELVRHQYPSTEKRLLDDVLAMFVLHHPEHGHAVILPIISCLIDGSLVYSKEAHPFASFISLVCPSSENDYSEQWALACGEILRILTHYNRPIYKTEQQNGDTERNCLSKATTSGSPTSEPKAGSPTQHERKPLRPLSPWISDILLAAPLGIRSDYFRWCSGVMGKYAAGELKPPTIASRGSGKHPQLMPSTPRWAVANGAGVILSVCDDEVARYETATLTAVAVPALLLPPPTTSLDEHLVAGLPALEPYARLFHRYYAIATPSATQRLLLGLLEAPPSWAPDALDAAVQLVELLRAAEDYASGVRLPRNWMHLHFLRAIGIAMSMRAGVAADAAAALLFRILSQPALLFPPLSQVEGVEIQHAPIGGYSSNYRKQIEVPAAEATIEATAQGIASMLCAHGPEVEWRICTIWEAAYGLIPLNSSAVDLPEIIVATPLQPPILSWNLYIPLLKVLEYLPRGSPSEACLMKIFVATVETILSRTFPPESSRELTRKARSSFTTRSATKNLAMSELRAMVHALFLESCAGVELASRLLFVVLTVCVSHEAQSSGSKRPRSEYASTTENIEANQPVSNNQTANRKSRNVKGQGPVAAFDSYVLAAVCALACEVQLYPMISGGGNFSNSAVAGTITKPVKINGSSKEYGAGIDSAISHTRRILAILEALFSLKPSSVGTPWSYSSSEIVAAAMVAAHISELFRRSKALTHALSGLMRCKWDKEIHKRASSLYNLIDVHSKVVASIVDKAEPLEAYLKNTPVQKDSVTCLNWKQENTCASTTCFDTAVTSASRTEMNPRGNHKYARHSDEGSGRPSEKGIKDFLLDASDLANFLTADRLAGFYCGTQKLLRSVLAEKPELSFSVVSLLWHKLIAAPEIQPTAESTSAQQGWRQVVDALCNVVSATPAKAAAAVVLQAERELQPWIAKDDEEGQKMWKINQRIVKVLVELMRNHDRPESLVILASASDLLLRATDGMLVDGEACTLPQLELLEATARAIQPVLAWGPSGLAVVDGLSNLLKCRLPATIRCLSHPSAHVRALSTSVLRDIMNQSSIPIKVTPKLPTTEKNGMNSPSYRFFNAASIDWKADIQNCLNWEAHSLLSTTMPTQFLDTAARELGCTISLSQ

[2] = biological target: T2, GIGANTEA (GI), full length, yeast two-hybrid fusion (Arabidopsis thaliana) (UniProt Q9SQI2); experiment: two-hybrid
T2 sequence: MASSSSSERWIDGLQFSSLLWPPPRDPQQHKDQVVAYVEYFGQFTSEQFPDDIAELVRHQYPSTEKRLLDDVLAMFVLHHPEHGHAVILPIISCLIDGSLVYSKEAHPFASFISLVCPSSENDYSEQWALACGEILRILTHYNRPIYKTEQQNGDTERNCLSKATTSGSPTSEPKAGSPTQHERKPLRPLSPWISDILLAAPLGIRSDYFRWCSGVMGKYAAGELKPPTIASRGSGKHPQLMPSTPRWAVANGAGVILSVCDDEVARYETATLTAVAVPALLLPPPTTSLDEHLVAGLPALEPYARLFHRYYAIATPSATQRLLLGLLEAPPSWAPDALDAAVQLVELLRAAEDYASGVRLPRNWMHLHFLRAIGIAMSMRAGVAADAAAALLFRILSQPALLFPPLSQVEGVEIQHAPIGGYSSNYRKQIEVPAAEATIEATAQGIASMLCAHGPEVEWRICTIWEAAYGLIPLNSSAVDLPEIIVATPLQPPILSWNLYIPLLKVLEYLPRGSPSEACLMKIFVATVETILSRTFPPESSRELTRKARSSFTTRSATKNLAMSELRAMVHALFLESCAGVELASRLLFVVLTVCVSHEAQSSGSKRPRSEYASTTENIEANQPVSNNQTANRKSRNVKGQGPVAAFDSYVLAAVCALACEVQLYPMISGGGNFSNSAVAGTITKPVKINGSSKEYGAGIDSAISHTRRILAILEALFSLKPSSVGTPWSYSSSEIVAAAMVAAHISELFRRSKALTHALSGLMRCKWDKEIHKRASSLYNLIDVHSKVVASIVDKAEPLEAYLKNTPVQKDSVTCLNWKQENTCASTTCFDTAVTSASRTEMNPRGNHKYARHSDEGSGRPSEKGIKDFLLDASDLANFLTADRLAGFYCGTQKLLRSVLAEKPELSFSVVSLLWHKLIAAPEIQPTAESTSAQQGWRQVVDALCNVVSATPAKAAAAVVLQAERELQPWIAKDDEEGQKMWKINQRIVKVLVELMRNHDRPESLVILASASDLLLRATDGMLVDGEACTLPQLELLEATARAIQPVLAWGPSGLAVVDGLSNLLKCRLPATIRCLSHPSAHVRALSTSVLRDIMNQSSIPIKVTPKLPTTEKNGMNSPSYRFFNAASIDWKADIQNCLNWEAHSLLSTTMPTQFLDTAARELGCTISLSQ

B1: UBP12 fused to a Venus (YFP) fragment for BiFC (enzyme, UniProt Q9FPT1 1-1116)
chain: MTMMTPPPVDQPEDEEMLVPNSDLVDGPAQPMEVTQPETAASTVENQPAEDPPTLKFTWTIPNFSRQNTRKHYSDVFVVGGYKWRILIFPKGNNVDHLSMYLDVSDAASLPYGWSRYAQFSLAVVNQIHTRYTVRKETQHQFNARESDWGFTSFMPLSELYDPSRGYLVNDTVLVEAEVAVRKVLDYWSYDSKKETGFVGLKNQGATCYMNSLLQTLYHIPYFRKAVYHMPTTENDAPTASIPLALQSLFYKLQYNDTSVATKELTKSFGWDTYDSFMQHDVQELNRVLCEKLEDKMKGTVVEGTIQQLFEGHHMNYIECINVDFKSTRKESFYDLQLDVKGCKDVYASFDKYVEVERLEGDNKYHAEGHGLQDAKKGVLFIDFPPVLQLQLKRFEYDFMRDTMVKINDRYEFPLELDLDREDGKYLSPDADRSVRNLYTLHSVLVHSGGVHGGHYYAFIRPTLSDQWYKFDDERVTKEDLKRALEEQYGGEEELPQTNPGFNNNPPFKFTKYSNAYMLVYIRESDKDKIICNVDEKDIAEHLRVRLKKEQEEKEDKRRYKAQAHLYTIIKVARDEDLKEQIGKDIYFDLVDHDKVRSFRIQKQTPFQQFKEEVAKEFGVPVQLQRFWIWAKRQNHTYRPNRPLTPQEELQPVGQIREASNKANTAELKLFLEVEHLDLRPIPPPEKSKEDILLFFKLYDPEKAVLSYAGRLMVKSSSKPMDITGKLNEMVGFAPDEEIELFEEIKFEPCVMCEHLDKKTSFRLCQIEDGDIICFQKPLVNKEIECLYPAVPSFLEYVQNRQLVRFRALEKPKEDEFVLELSKQHTYDDVVEKVAEKLGLDDPSKLRLTSHNCYSQQPKPQPIKYRGVDHLSDMLVHYNQTSDILYYEVLDIPLPELQGLKTLKVAFHHATKEEVVIHNIRLPKQSTVGDVINELKTKVELSHPDAELRLLEVFYHKIYKIFPSTERIENINDQYWTLRAEEIPEEEKNIGPNDRLILVYHFAKETGQNQQVQNFGEPFFLVIHEGETLEEIKNRIQKKLHVSDEDFAKWKFAFMSMGRPEYLQDTDVVYNRFQRRDVYGAFEQYLGLEHADTTPKRAYAANQNRHAYEKPVKIYN
B1 was tested, and the binding [1] was “binds”.

B2: UBP13 fused to a Venus (YFP) fragment for BiFC (enzyme, UniProt Q84WU2 1-1115)
chain: MTMMTPPPLDQQEDEEMLVPNPDLVEGPQPMEVAQTDPAATAVENPPPEDPPSLKFTWTIPMFTRLNTRKHYSDVFVVGGYKWRILIFPKGNNVDHLSMYLDVADAANLPYGWSRYSQFSLAVVNQVNNRYSIRKETQHQFNARESDWGFTSFMPLSELYEPTRGYLVNDTVLIEAEVAVRKVLDYWSYDSKKETGFVGLKNQGATCYMNSLLQTLYHIPYFRKAVYHMPTTENDAPTASIPLALQSLFYKLQYNDTSVATKELTKSFGWDTYDSFMQHDVQELNRVLCEKLEDKMKGTVVEGTIQKLFEGHHMNYIECINVDYKSTRKESFYDLQLDVKGCKDVYASFDKYVEVERLEGDNKYHAEGHDLQDAKKGVLFIDFPPVLQLQLKRFEYDFMRDTMVKINDRYEFPLQLDLDREDGRYLSPDADKSVRNLYTLHSVLVHSGGVHGGHYYAFIRPTLSDQWYKFDDERVTKEDVKRALEEQYGGEEELPQNNPGFNNPPFKFTKYSNAYMLVYIRESDKDKIICNVDEKDIAEHLRVRLKKEQEEKEDKRKYKAQAHLFTTIKVARDDDITEQIGKNIYFDLVDHEKVRSFRIQKQTPFQQFKEEVAKEFGVPVQLQRFWIWAKRQNHTYRPNRPLSPNEELQTVGQIREASNKANNAELKLFLEIERGPDDLPIPPPEKTSEDILLFFKLYDPENAVLRYVGRLMVKSSSKPMDIVGQLNKMAGFAPDEEIELFEEIKFEPCVMCEQIDKKTSFRLCQIEDGDIICYQKPLSIEESEFRYPDVPSFLEYVQNRELVRFRTLEKPKEDEFTMELSKLHTYDDVVERVAEKLGLDDPSKLRLTSHNCYSQQPKPQPIKYRGVDHLSDMLVHYNQTSDILYYEVLDIPLPELQGLKTLKVAFHSATKDEVIIHNIRLPKQSTVGDVINELKTKVELSHQDAELRLLEVFFHKIYKIFPSTERIENINDQYWTLRAEEIPEEEKNIGPNDRLIHVYHFTKEAGQNQQVQNFGEPFFLVIHEGETLEEIKTRIQKKLHVPDEDFAKWKFASFSMGRPDYLLDTDVVYNRFQRRDVYGAWEQYLGLEHIDNAPKRAYAANQNRHAYEKPVKIYN
B2 was tested, and the binding [1] was “binds”.

B3: UBP13 protease domain fragment, yeast two-hybrid fusion (domain or fragment, UniProt Q84WU2 198-522)
chain: VGLKNQGATCYMNSLLQTLYHIPYFRKAVYHMPTTENDAPTASIPLALQSLFYKLQYNDTSVATKELTKSFGWDTYDSFMQHDVQELNRVLCEKLEDKMKGTVVEGTIQKLFEGHHMNYIECINVDYKSTRKESFYDLQLDVKGCKDVYASFDKYVEVERLEGDNKYHAEGHDLQDAKKGVLFIDFPPVLQLQLKRFEYDFMRDTMVKINDRYEFPLQLDLDREDGRYLSPDADKSVRNLYTLHSVLVHSGGVHGGHYYAFIRPTLSDQWYKFDDERVTKEDVKRALEEQYGGEEELPQNNPGFNNPPFKFTKYSNAYMLVYIRE
For B3, the binding [2] was “no binding”.

B4: UBP12 protease domain fragment, yeast two-hybrid fusion (domain or fragment, UniProt Q9FPT1 199-524)
chain: VGLKNQGATCYMNSLLQTLYHIPYFRKAVYHMPTTENDAPTASIPLALQSLFYKLQYNDTSVATKELTKSFGWDTYDSFMQHDVQELNRVLCEKLEDKMKGTVVEGTIQQLFEGHHMNYIECINVDFKSTRKESFYDLQLDVKGCKDVYASFDKYVEVERLEGDNKYHAEGHGLQDAKKGVLFIDFPPVLQLQLKRFEYDFMRDTMVKINDRYEFPLELDLDREDGKYLSPDADRSVRNLYTLHSVLVHSGGVHGGHYYAFIRPTLSDQWYKFDDERVTKEDLKRALEEQYGGEEELPQTNPGFNNNPPFKFTKYSNAYMLVYIRE
For B4, the binding [2] was “no binding”.
